Results on 25 molecules are retold here after the supplement of paper PMC10735217.

Counter-ions that a name gives are not always drawn. The list shows a part of the results. This data set is noisy: repeats of one test often differ as much as different tests do.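 Human kidney-derived cells stably carry a construct in which eight TEAD-binding elements drive luciferase, measured by luminescence in a drug-repurposing library screen. A hit is any compound whose signal exceeds the plate mean by more than five robust Z scores.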

The assay concerns HEK293A TEAD-LUC reporter. Nature of the assay: TEAD-luciferase reporter activity (YAP activation), robust Z score vs plate; higher = stronger YAP/TEAD activation. Conditions: 24 h.

For the molecule `CC(C)COC(=O)[C@H](Cc1ccccc1)NP(=O)(COCCn1cnc2c(NC3CC3)nc(N)nc21)N[C@@H](Cc1ccccc1)C(=O)OCC(C)C`, the TEAD-luciferase reporter activity is, setting by setting: (compound concentration: 200 nM) inactive: -1.61; (compound concentration: 2 uM) inactive: -2.07; (compound concentration: 10 uM) inactive: -0.418.
Turning to `COc1ccc2c(c1)CN(C(=O)CCN1CCC(Cc3ccccc3)CC1)CCS2`, the TEAD-luciferase reporter activity is inactive: 0.0235 (compound concentration: 200 nM), inactive: -1.02 (compound concentration: 2 uM) and inactive: 1.37 (compound concentration: 10 uM).
`COC(=O)C1=C(C)NC(C)=C(C(=O)OCCN2CCN(c3ccc(Cl)c(Cl)c3)CC2)C1c1cccc([N+](=O)[O-])c1` (stereo not given): the TEAD-luciferase reporter activity reads like this: (compound concentration: 200 nM) inactive: -0.833; (compound concentration: 2 uM) inactive: 2.4; (compound concentration: 10 uM) inactive: 0.607.
Taken in the same sequence, the figures for `CCC(C)CCCCC(=O)N[C@@H](CCN)C(=O)N[C@H](C(=O)N[C@@H](CCN)C(=O)N[C@H]1CCNC(=O)[C@H]([C@@H](C)O)NC(=O)[C@H](CCN)NC(=O)[C@H](CCN)NC(=O)[C@H](CC(C)C)NC(=O)[C@@H](Cc2ccccc2)NC(=O)[C@@H](CCN)NC1=O)[C@@H](C)O` (stereo not given in full) were inactive: -0.646, inactive: -1.35 and inactive: -0.788.
The like results for `CC(C)C[C@@H](C(=O)Nc1ccn(C[C@H](O)CO)n1)N1CC(Oc2ccccc2Cl)=CC1=O` were, in that order, inactive: 1.01, inactive: -0.88 and inactive: 3.02.
The like results for `O=C(O)Cn1c(=O)n(Cc2ccc(Br)cc2F)c(=O)c2ccc(F)cc21` were, in that order, inactive: -0.572, inactive: 3.41 and inactive: -0.104.
`CC(=O)OCC1=C(C(=O)O)N2C(=O)[C@@H](NC(=O)CC#N)[C@H]2SC1`: the TEAD-luciferase reporter activity is, setting by setting: (compound concentration: 200 nM) inactive: 0.498; (compound concentration: 2 uM) inactive: -1.03; (compound concentration: 10 uM) inactive: 2.93.
For `CC1=C(C#N)C(c2cccc3ncc(-c4ccccc4)cc23)C(C(=O)OCCC#N)=C(C)N1` (stereo not given), the TEAD-luciferase reporter activity is inactive: 1.87 (compound concentration: 200 nM), inactive: -1.82 (compound concentration: 2 uM) and inactive: 1.29 (compound concentration: 10 uM).
The like results for `COc1cccc(CNCC(O)COc2ccc3[nH]c(=O)ccc3c2)c1` (stereo not given) were, in that order, inactive: -1.03, inactive: 0.213 and inactive: -1.07.
For `COc1cc2c(cc1OC)[C@H](CCN1CCN(c3ccccc3)CC1)[C@H](C)N2`, the TEAD-luciferase reporter activity was inactive: 0.506 (compound concentration: 200 nM), inactive: 0.124 (compound concentration: 2 uM) and inactive: 4.76 (compound concentration: 10 uM).
On to `Oc1nccc2cc(OC3CCNCC3)ccc12`, for which the TEAD-luciferase reporter activity by setting is: (compound concentration: 200 nM) inactive: 0.838; (compound concentration: 2 uM) inactive: 1.21; (compound concentration: 10 uM) inactive: 0.193.
Taken in the same sequence, the figures for `Cc1oncc1C(=O)Nc1ccc(C(F)(F)F)cc1` [leflunomide] were inactive: -1.25, inactive: -0.211 and inactive: 0.875.
Turning to `Cc1ccc2c([nH]c(=O)c3c(=O)cc(C(=O)OCCC(C)C)oc32)c1C` [repirinast], the TEAD-luciferase reporter activity is inactive: -0.315 (compound concentration: 200 nM), inactive: 0.0144 (compound concentration: 2 uM) and inactive: 0.608 (compound concentration: 10 uM).
For the molecule `CC(=O)N1Cc2ccccc2CC12CCCN(C(=O)c1ccccc1)C2` (stereo not given), the TEAD-luciferase reporter activity is, setting by setting: (compound concentration: 200 nM) inactive: 2.53; (compound concentration: 10 uM) inactive: 0.983.
With `Cc1cc(Nc2ncnc3ccc(-c4ccc(CNCCS(C)(=O)=O)o4)cc23)ccc1Oc1ccn2ncnc2c1` [analog of ARRY-380], the TEAD-luciferase reporter activity reads like this: (compound concentration: 200 nM) inactive: -1.46; (compound concentration: 2 uM) inactive: -0.512; (compound concentration: 10 uM) inactive: 0.848.
The like results for `CCCc1c(OCCCOc2ccc3c(c2)OC(C(=O)O)CC3)ccc(C(C)=O)c1OC` (stereo not given) were, in that order, inactive: 0.224, inactive: -0.11 and inactive: -1.22.
Taken in the same sequence, the figures for `COC(=O)C(C)c1ccc(-c2ccsc2)cc1` (stereo not given) were inactive: -0.864, inactive: -0.688 and inactive: -0.401.
The like results for `COc1cc2c(cc1OC)[C@@H](Cc1cc(OC)c(OC)c(OC)c1)[N+](C)(CCCOC(=O)CC/C=C/CCC(=O)OCCC[N+]1(C)CCc3cc(OC)c(OC)cc3[C@H]1Cc1cc(OC)c(OC)c(OC)c1)CC2` (stereo not given in full) [Mivacurium chloride] were, in that order, inactive: -0.436, inactive: -0.864 and inactive: 1.79.
Turning to `CNC(C)CCC=C(C)C` (stereo not given) [Isometheptene hydrochloride], the TEAD-luciferase reporter activity (compound concentration: 200 nM) is inactive: 0.062, the TEAD-luciferase reporter activity (compound concentration: 2 uM) is inactive: -0.794 and the TEAD-luciferase reporter activity (compound concentration: 10 uM) was inactive: -0.0743.
As to `CN(C)C/C=C/C(=O)Nc1cc2c(Nc3ccc(F)c(Cl)c3)ncnc2cc1O[C@H]1CCOC1` [Afatinib], the TEAD-luciferase reporter activity (compound concentration: 2 uM) is inactive: -1.01.
For the molecule `CN(C)C/C=C/C(=O)Nc1cc2c(Nc3ccc(F)c(Cl)c3)ncnc2cc1O[C@H]1CCOC1` [Afatinib (BIBW2992)], the TEAD-luciferase reporter activity is inactive: 0.367 (compound concentration: 200 nM) and inactive: 0.0624 (compound concentration: 10 uM).
As to `Cn1cc(-c2ccc(F)c(C(F)(F)F)c2)nc1C1CCN(c2ncnc3[nH]ncc23)CC1`, the TEAD-luciferase reporter activity (compound concentration: 200 nM) was inactive: -1.05, the TEAD-luciferase reporter activity (compound concentration: 2 uM) was inactive: -1.41 and the TEAD-luciferase reporter activity (compound concentration: 10 uM) was inactive: -1.71.
As to `CCCCCN(CCC12CC3CC(CC(C3)C1)C2)C(=O)NCCCc1ccncc1`, the TEAD-luciferase reporter activity was inactive: -1.03 (compound concentration: 200 nM), inactive: -1.92 (compound concentration: 2 uM) and inactive: 1.19 (compound concentration: 10 uM).
For `Fc1ccc(-c2c[n+](CCc3ccccc3)c3n2CCC3)cc1`, the TEAD-luciferase reporter activity is inactive: -1.12 (compound concentration: 200 nM), inactive: -0.562 (compound concentration: 2 uM) and inactive: 2.69 (compound concentration: 10 uM).
On to `CC(CCC(=O)NCCS(=O)(=O)O)[C@H]1CC[C@H]2[C@@H]3CC[C@@H]4C[C@H](O)CC[C@]4(C)[C@H]3C[C@H](O)[C@]12C` (stereo not given in full) [Taurodeoxycholic acid sodium salt hydrate], for which the TEAD-luciferase reporter activity was inactive: 0.218 (compound concentration: 200 nM) and inactive: 0.105 (compound concentration: 10 uM).
